Data on 29 substances can be found in paper PMC9004346 (Chemical Communications (Cambridge, England), 2022).

The data set in a line: general procedure: Fmoc solid-phase peptide synthesis; Merck LL MBHA Rink amide resin (0.33 mmol/g manual; 0.46 mmol/g automated); HATU/DIPEA (manual); DIC/Oxyma pure (automated). The note with it: for final HPLC purity: LCMS and HPLC analysis.
The mark [1] stands for this setting: cyclisation step, thioether ring.

Where a sequence shows no end group, the ends are not given. Some peptides are written in HELM: one residue between dots, names in brackets for other building blocks, links after the first $. *1 amine or outer side, *2 acyl side, *3 side chain or, on linkers, in order; H or OH if unused. Bridges are numbered along the chain shown (N, C = ends). Side-chain parts run from the residue outwards. [ ]: non-standard residue; d: D form. The star is where a group is joined. Trp(2-yl) = O=C([C@H](Cc1c([*:3])[nH]c2ccccc12)N[*:1])[*:2]; X1 = CN(CC(=O)O)c1nc(CC[*:1])cc(CC[*:2])n1; Lauroyl = CCCCCCCCCCCC(=O)*; hCys = N[C@@H](CCS)C(=O)O; AEEA = NCCOCCOCC(=O)O

Take (LA)(PEG)(hC)RLYGFKW: the “final HPLC purity” value (whole synthesis) was determined as 90%.
Consider (PEG)(hC)C3RLYGFKWC3, for which the “final HPLC purity” value under setting [1] came to 98%.
With (PEG)(hC)RLYGFKW, the “final HPLC purity” value (whole synthesis) is 86%.
With (hC)RLYGFK(PEG-(LA))W, under “whole synthesis”, the “final HPLC purity” value came out at 98%.
Consider (hC)RLYGFK(PEG-Ac)W, for which the “final HPLC purity” value (whole synthesis) came out at 97%.
With “Ac-CRLYGFKC-NH2 (linker 1-8 via X1; SMILES CC(=O)N[C@H]1CSCCc2cc(nc(N(C)CC(=O)O)n2)CCSC[C@@H](C(N)=O)NC(=O)[C@H](CCCCN)NC(=O)[C@H](Cc2ccccc2)NC(=O)CNC(=O)[C@H](Cc2ccc(O)cc2)NC(=O)[C@H](CC(C)C)NC(=O)[C@H](CCCNC(=N)N)NC1=O)”, for the setting “cyclisation step”, the cyclisation yield is reported as 17% and the “final HPLC purity” value amounted to 74%.
On the same counts, the results for “Ac-CRLYGFK[Trp(2-yl)]-NH2 (thioether 1-8; SMILES CC(=O)N[C@H]1CSc2[nH]c3ccccc3c2C[C@@H](C(N)=O)NC(=O)[C@H](CCCCN)NC(=O)[C@H](Cc2ccccc2)NC(=O)CNC(=O)[C@H](Cc2ccc(O)cc2)NC(=O)[C@H](CC(C)C)NC(=O)[C@H](CCCNC(=N)N)NC1=O)” are 25% and 94%.
Ac-LYGFKW-NH2: the “final HPLC purity” value (whole synthesis) amounted to 97%.
Ac-RLYGFK-NH2: under “whole synthesis”, the “final HPLC purity” value came out at 95%.
On to Ac-RLYGFKW-NH2, for which the “final HPLC purity” value (whole synthesis) was 93%.
Regarding Ac-RLYGFKWH-NH2, the “final HPLC purity” value (whole synthesis) is 96%.
In the case of “Ac-[hCys]RLYGFK([AEEA-Ac])[Trp(2-yl)]-NH2 (thioether 1-8 (inferred); SMILES CC(=O)NCCOCCOCC(=O)NCCCC[C@@H]1NC(=O)[C@H](Cc2ccccc2)NC(=O)CNC(=O)[C@H](Cc2ccc(O)cc2)NC(=O)[C@H](CC(C)C)NC(=O)[C@H](CCCNC(=N)N)NC(=O)[C@@H](NC(C)=O)CCSc2[nH]c3ccccc3c2C[C@@H](C(N)=O)NC1=O)”, for the setting “cyclisation step”, the “final HPLC purity” value is given as >99%.
For the substance “Ac-[hCys]RLYGFK([AEEA-Lauroyl])[Trp(2-yl)]-NH2 (thioether 1-8; SMILES CCCCCCCCCCCC(=O)NCCOCCOCC(=O)NCCCC[C@@H]1NC(=O)[C@H](Cc2ccccc2)NC(=O)CNC(=O)[C@H](Cc2ccc(O)cc2)NC(=O)[C@H](CC(C)C)NC(=O)[C@H](CCCNC(=N)N)NC(=O)[C@@H](NC(C)=O)CCSc2[nH]c3ccccc3c2C[C@@H](C(N)=O)NC1=O)”, under “cyclisation step”, the “final HPLC purity” value was determined as 92%.
With “Ac-[hCys]RLYGFKW-NH2 (SMILES CC(=O)N[C@@H](CCS)C(=O)N[C@@H](CCCNC(=N)N)C(=O)N[C@@H](CC(C)C)C(=O)N[C@@H](Cc1ccc(O)cc1)C(=O)NCC(=O)N[C@@H](Cc1ccccc1)C(=O)N[C@@H](CCCCN)C(=O)N[C@@H](Cc1c[nH]c2ccccc12)C(N)=O)”, the “final HPLC purity” value (whole synthesis) worked out at 95%.
On to “Ac-[hCys]RLYGFK[Trp(2-yl)]-NH2 (thioether 1-8; SMILES CC(=O)N[C@H]1CCSc2[nH]c3ccccc3c2C[C@@H](C(N)=O)NC(=O)[C@H](CCCCN)NC(=O)[C@H](Cc2ccccc2)NC(=O)CNC(=O)[C@H](Cc2ccc(O)cc2)NC(=O)[C@H](CC(C)C)NC(=O)[C@H](CCCNC(=N)N)NC1=O)”, for which, under “cyclisation step”, the “final HPLC purity” value is recorded as 97%.
As to CRLYGFKC, the “final HPLC purity” value (whole synthesis) was 96%.
As for CRLYGFKW, the “final HPLC purity” value (whole synthesis) is 95%.
As to GRKKRRQRRRPPQ(Ahx)(Ahx), where the note is “whole synthesis”, the “final HPLC purity” value worked out at 98%.
As to GRKKRRQRRRPPQ(Ahx)(Ahx)(hC)C9RLYGFKWC9, under setting [1], the “final HPLC purity” value is on record as >99%.
Turning to GRKKRRQRRRPPQ(Ahx)(Ahx)(hC)RLYGFKW, the “final HPLC purity” value (whole synthesis) is 62%.
For JC2RLYGFKXC2, where the note is “cyclisation step, cyclic”, the “final HPLC purity” value came to 98% and the cyclisation yield is 19%.
With JC3RLYGFKXC3, for the setting “cyclisation step, cyclic”, the “final HPLC purity” value came to 96% and the cyclisation yield turned out to be 3%.
As for “PEPTIDE1{[ac].C.R.L.Y.G.F.K.C.[am]}|CHEM1{[C4_acetone]}$PEPTIDE1,CHEM1,2:R3-1:R1|PEPTIDE1,CHEM1,9:R3-1:R2$$$V2.0”, under “cyclisation step”, the cyclisation yield was found to be 8% and the “final HPLC purity” value is on record as 90%.
Regarding “PEPTIDE1{[ac].C.R.L.Y.G.F.K.C.[am]}|CHEM1{[C5_mXylene]}$PEPTIDE1,CHEM1,2:R3-1:R1|PEPTIDE1,CHEM1,9:R3-1:R2$$$V2.0”, for the setting “cyclisation step”, the “final HPLC purity” value came out at 95%.
For the substance “PEPTIDE1{[ac].C.R.L.Y.G.F.K.C.[am]}|CHEM1{[C6_CH2]}$PEPTIDE1,CHEM1,2:R3-1:R1|PEPTIDE1,CHEM1,9:R3-1:R2$$$V2.0”, where the note is “cyclisation step”, the cyclisation yield is 19% and the “final HPLC purity” value is reported as 92%.
As to “PEPTIDE1{[ac].G.[Aza].R.L.Y.G.F.K.W.H.[Aza].G.G.[am]}$$$$V2.0”, the “final HPLC purity” value (whole synthesis) is given as 97%.
With RRR(Ahx)(Ahx)(hC)C9RLYGFKWC9, the “final HPLC purity” value under setting [1] is on record as 99%.
Consider RRR(Ahx)(Ahx)(hC)RLYGFKW, for which, where the note is “whole synthesis”, the “final HPLC purity” value is recorded as 98%.
As for “{Lauroyl-AEEA}-[hCys]RLYGFK[Trp(2-yl)]-NH2 (thioether 1-8; SMILES CCCCCCCCCCCC(=O)NCCOCCOCC(=O)N[C@H]1CCSc2[nH]c3ccccc3c2C[C@@H](C(N)=O)NC(=O)[C@H](CCCCN)NC(=O)[C@H](Cc2ccccc2)NC(=O)CNC(=O)[C@H](Cc2ccc(O)cc2)NC(=O)[C@H](CC(C)C)NC(=O)[C@H](CCCNC(=N)N)NC1=O)”, under “cyclisation step”, the “final HPLC purity” value is recorded as 99%.
